# Test results from patent publication US20210317221A1.
# The chains behind the UniProt entries cited, without tags or fusion partners. Where a name states a change or a piece, a line headed by the entry shows the natural chain unless it says otherwise.
# UniProt P20333: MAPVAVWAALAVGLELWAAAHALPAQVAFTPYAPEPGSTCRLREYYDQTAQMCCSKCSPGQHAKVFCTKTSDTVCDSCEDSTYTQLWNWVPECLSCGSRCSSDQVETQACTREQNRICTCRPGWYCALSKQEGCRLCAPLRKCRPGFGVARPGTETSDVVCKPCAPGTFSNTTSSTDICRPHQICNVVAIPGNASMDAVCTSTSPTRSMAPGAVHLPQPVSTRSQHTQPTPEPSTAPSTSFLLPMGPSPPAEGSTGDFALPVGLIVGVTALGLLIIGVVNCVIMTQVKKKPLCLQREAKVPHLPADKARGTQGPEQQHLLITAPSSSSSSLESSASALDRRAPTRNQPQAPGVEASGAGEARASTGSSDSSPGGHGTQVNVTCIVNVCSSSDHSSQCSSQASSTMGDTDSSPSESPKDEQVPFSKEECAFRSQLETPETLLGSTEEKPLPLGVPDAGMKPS
# No constants are given. Whether binding was seen depends on the method and setting. Some results given as binding are weak or reduced against the parent protein; the word gives no strength. Sequences can lack the tags named with a protein.
# B1: antagonistic TNFR2 antibody TNFRAB1 (antibody, V domains shown)
# VH: EVQLQESGGGLVKPGGSLKLSCAASGFTFSSYVMSWVRQTPEKRLEWVATISSGGSYTYYPDSVKGRFTISRDNAKNTLYLQMSSLRSEDTAMYYCARQRVDGYSSYWYFDVWGAGTAVTVSS
# VL: DIVLTQSPAIMSASPGEKVTITCSASSSVYYMYWFQQKPGTSPKLWIYSTSNLASGVPVRFSGSGSGTSYSLTISRMEAEDAATYYCQQRRNYPYTFGGGTKLEIKR
# Molecular target: recombinant human TNFR2 (human) (UniProt P20333)
# Assay: ELISA, linear peptide mapping experiment with full-length TNFR2
binder,measurement,value
B1,binding,binds
